Out of some 300,000 compounds screened, about 5,400 (1.8%) were called active. The shares of active, inactive and inconclusive entries below differ from those in the screen. Calls come from the whole dose curve; tested in HEK293 cells. Where the call is inconclusive, the potency comes from a doubtful curve fit.
Experiment: qHTS for inhibitors of binding or entry into cells for Marburg Virus
Settings: Marburg virus pseudotyped entry inhibition, cell reporter; activity change, negative = inhibition: at 37.8 µM (top of the series) unless noted
% is set by controls: 0 for no effect and ±100 for the full control effect; potency is the fitted concentration of half-maximal effect.

SMILES	activity change, negative = inhibition	Potency
COc1ccccc1OCCC(=O)OCC(=O)Nc1cccc(Br)c1	inactive: -0.651%	
O=c1c(-c2ccc3c(c2)OCCO3)coc2cc(OC3OC(CO)C(O)C(O)C3O)ccc12 (centres undefined)		inconclusive: 9.2 µM [inhibitor, partial curve, poor fit]
O=C(OCc1cc2ccccc2[nH]c1=O)c1ccccn1		inconclusive: 0.112 µM [activator, full curve, poor fit]
Cc1cccc(C)c1NC(=O)Cn1c(=O)n(CC2CCC(C(=O)NCCc3ccccc3)CC2)c(=O)c2ccccc21 (centres undefined)		inconclusive: 0.562 µM [inhibitor, partial curve, poor fit]
COc1cc(CCC(=O)Nc2c(C(=O)N3CCN(c4ccccc4OC)CC3)oc3ccccc23)on1		inconclusive: 17.8 µM [inhibitor, single point]
CNC(=O)COc1coc(CN2CCN(c3ccccc3)CC2)cc1=O		inconclusive: 6.31 µM [activator, single point]
CC(C)C(NC(=O)OCc1ccccc1)C(=O)OCC(=O)NCc1ccco1 (centres undefined)	inactive: 18%	
Cc1cccc(N2CCN(C(=S)c3ccccc3)CC2)c1		inconclusive: 8.91 µM [inhibitor, partial curve, poor fit]
CNc1snc(C)c1C(=O)OCC(=O)Nc1ccc(C)cc1F		inconclusive: 0.398 µM [inhibitor, full curve, poor fit]
Cc1cccnc1Nc1nc(-c2ccc(O)cc2O)cs1		inconclusive: 0.708 µM [activator, full curve, poor fit]
COc1ccc(C(=O)N(C)C2CCCc3ccccc32)cc1OC1CCN(C(C)C)CC1 (centres undefined)	inactive: -15.4%	
CCC(C)NC(=O)CSc1nc2c(sc(=S)n2Cc2ccco2)c(=O)n1-c1ccccc1 (centres undefined)	inactive: -14.8%	
COc1ccc2cnnc(SCC(=O)Nc3ccc(C(=O)O)cc3)c2c1OC		inconclusive: 7.08 µM [activator, partial curve, poor fit]
CC(C)c1nnc(SCC(=O)Nc2ccc3c(c2)OCO3)n1C	inactive: 2.35% [at 46.1 µM]	
C1=NN(c2ccccc2)C=NN1c1ccccc1		inconclusive: 7.08 µM [activator, full curve, poor fit]
COc1ccc(C(C)=O)cc1CN(c1ccccc1OC)S(=O)(=O)c1cccs1		inconclusive: 20.6 µM [inhibitor, single point]
COc1ccc(-c2ccc3c(N)c(C(=O)NCc4ccc(Cl)cc4)sc3n2)cc1	inactive: -0.0355% [at 46.1 µM]	
Cc1nn(C)c(C(=O)NNC(=O)Nc2cccc(C(F)(F)F)c2)c1Cl		inconclusive: 14.1 µM [inhibitor, single point]
COc1cccc(COC(=O)C2CCN(S(=O)(=O)c3ccc(F)cc3)CC2)c1OC		inconclusive: 15.8 µM [activator, single point]
C1CN(CC2CCN(c3nc4nonc4nc3N3CCSCC3)CC2)CCO1	inactive: 10.8% [at 14.2 µM]	
COc1ccc(CNC(=O)C(c2ccc(C)o2)N(C(=O)c2snc(C(N)=O)c2N)c2ccccc2OC)cc1 (centres undefined)		inconclusive: 35.5 µM [inhibitor, single point]
Cc1cc(=O)oc2c1ccc1oc(/C(=N/O)c3ccccc3)c(C)c12		inconclusive: 18.3 µM [inhibitor, single point]

SMILES	activity change, negative = inhibition	Potency
COc1ccccc1NS(=O)(=O)c1ccc(C(=O)OCC(=O)NCc2ccco2)cc1	inactive: -3.17%	
Cc1ccc(-n2c(C)cc(/C=N/Nc3ccc([N+](=O)[O-])cn3)c2C)c(C)c1		inconclusive: 12.6 µM [inhibitor, single point]
COc1cc(NC(=O)c2ccccc2)ccc1NC(=O)c1cc2ccccc2o1		inconclusive: 5.62 µM [inhibitor, single point]
CC(C)NC(=O)c1nc2ccccc2s1		inconclusive: 25.9 µM [activator, single point]
Cc1cc(C(=O)COC(=O)c2nn(C)c(=O)c3ccccc23)c(C)n1C	inactive: 10.4% [at 46.1 µM]	
COc1ccc(NC(=O)C(OC(=O)c2cnc(C)cn2)c2ccccc2)cc1Cl (centres undefined)	inactive: 15.2%	
O=C(Nc1nc2ccccc2n1CCN1CCCC1)c1ccc(Cl)cc1		inconclusive: 35.5 µM [inhibitor, single point]
Cc1ccc(N2CCN(C(=O)c3ccccc3NC(=O)c3ccccc3C(=O)O)CC2)cc1	inactive: 10.7%	
CCc1ccc(OCC(=O)Nc2ccncc2)c(Br)c1		inconclusive: 20 µM [inhibitor, single point]
Oc1ccccc1-c1cc(-c2cccc(F)c2)n[nH]1	inactive: 0.362%	
COc1ccc(F)cc1CSc1nnnn1-c1ccc(O)cc1		inconclusive: 8.91 µM [inhibitor, partial curve, poor fit]
O=C(N/C(=C\c1cn(-c2ccccc2)nc1-c1ccc(Cl)cc1)C(=O)N1CCOCC1)c1ccccc1	inactive: -0.507%	
O=C(Nc1ccc(F)cc1)c1c(Cl)nc2ccccn12		inconclusive: 28.2 µM [activator, single point]
NS(=O)(=O)c1ccc(CCNCc2cc(Cl)ccc2OCc2ccccc2)cc1		inconclusive: 12.6 µM [inhibitor, partial curve, poor fit]
CC(=O)Nc1ccc(C(=O)OCC(=O)Nc2ccc([N+](=O)[O-])cc2C(F)(F)F)cc1		inconclusive: 25.1 µM [activator, single point]
C=CCCC1(CC(C)C)C(=O)NC(=S)NC1=O	inactive: 8.03%	
Cc1ccc2cc(C#N)c(N3CCCN(C(=S)NCCCN(C)C)CC3)nc2c1		active: 7.08 µM
O=C1c2ccccc2C(=O)N1CCC(=O)N1CCCc2ccccc21	inactive: 0.539%	
Nc1c(C(=O)c2ccc(Cl)cc2)sc2nsc(SCCN3CCOCC3)c12	inactive: 1.22% [at 46.1 µM]	
COC(=O)c1cc(NC(=O)COC(=O)CN2C(=O)C3CC=CCC3C2=O)cc(C(=O)OC)c1 (centres undefined)		inconclusive: 1.41 µM [activator, single point]
COC(=O)C1CCCN1C(=O)C12CC3CC(CC(C3)C1)C2 (centres undefined)		inconclusive: 5.01 µM [inhibitor, single point]
Cc1ccc(-n2c(=O)[nH]c3c(C(N)=O)nc(-c4ccc(C)o4)nc32)cc1		inconclusive: 11.2 µM [inhibitor, partial curve]

Not a retest: an excerpt of the list.
SMILES	activity change, negative = inhibition	Potency
C=CCCC1(CC(C)C)C(=O)NC(=S)NC1=O	inactive: 8.03%	
Cc1ccc2cc(C#N)c(N3CCCN(C(=S)NCCCN(C)C)CC3)nc2c1		active: 7.08 µM
O=C1c2ccccc2C(=O)N1CCC(=O)N1CCCc2ccccc21	inactive: 0.539%	
Nc1c(C(=O)c2ccc(Cl)cc2)sc2nsc(SCCN3CCOCC3)c12	inactive: 1.22% [at 46.1 µM]	

Reference: PubChem BioAssay AID540276 (National Center for Advancing Translational Sciences (NCATS), 2011)
